Test results reported in PubChem BioAssay AID1347431 (National Center for Advancing Translational Sciences (NCATS), 2020).
Hit rate of the full screen: of about 1,200 compounds, fewer than 10 were called active. Calls come from the whole dose curve; as a rule, active = well fitted curve in the direction sought with a large enough effect; inconclusive = small, poorly fitted or top-dose-only effect, or another doubt; inactive = no such curve, though single readings can be large or run the other way. This is one part of the list.

Test: Confirmatory qHTS assay for inhibitors of Activation Induced Cytidine Deaminase (AID): UDG signals; note: 0% is about no effect
Details: UDG coupled enzyme activity counter-screen; at 115 µM (top of the series) unless noted
Method in brief: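 Fluorescence at 560 nm excitation/665 nm emission reports UDG activity, read after NaOH quench of a 4 h room-temperature reaction of DJC20/DJC23 substrates with AID (1 uM, 4/3x) and UDG (2 U/mL, 4/3x); compounds at 7.32 nM - 114 uM final, preincubated 10 min.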

Structure (SMILES)	activity change, negative = inhibition
CCc1ccc(NC(=O)c2ccc3c(O)c(S(=O)(=O)c4ccccc4)c(=O)[nH]c3c2)cc1	inactive: 12.1%
[N-]=[N+]=Nc1ccc(C(=O)CSC[C@H](NC(=O)CC[C@H](N)C(=O)O)C(=O)NCC(=O)O)cc1	inactive: 11.8%
COc1cccc(C(=O)Nc2nc3nc(C)c(Cc4ccccc4)c(=O)n3[nH]2)c1	inactive: 12.2%
Cc1ccc2oc(C(=O)NCC(c3ccc(Cl)cc3)N3CCOCC3)c(C)c2c1 (stereo not given)	inactive: -1.52%
COc1ccccc1CNC(=O)CSc1nc2nc(C)c(Cc3ccccc3C)c(C)n2n1	inactive: 7.22%
CC(C)(C)c1ccc(C(=O)N2CCCC(c3nc4c(nnn4Cc4cccc(F)c4)c(=O)[nH]3)C2)cc1 (stereo not given)	inactive: -0.802%
Cc1ccccc1Nc1c(-c2ccc(N3CCOCC3)cc2)nc2cccc(C)n12	inactive: -1.27%
Cc1cccc(-n2c3nc(=O)[nH]c(=O)c-3cc3ccc(Cl)cc32)c1C	inactive: -6.3%
COc1ccc(OC)c(-c2noc(N3CCN(c4cccc(C(F)(F)F)c4)CC3)n2)c1	inactive: -11.7%
CCC(=O)Oc1c(Sc2ccc(C)cc2)c(C)nn1-c1ccccc1	inactive: 5.23%
CCOc1ccccc1C(=O)N1CCc2cc(OC)c(OC)cc2C1COc1ccc(OC)cc1 (stereo not given)	inactive: -15.4%
COc1ccc(CN(Cc2ccco2)C(=O)COc2ccccc2Cl)cc1	inactive: -7.93%
N=c1n(CCN2CCCCC2)c2ccccc2n1CC(O)COc1ccccc1 (stereo not given)	inactive: 1.57%
Cc1ccc(Cl)cc1N1CCN(CCCNC(=O)c2ccc3nc(N4CCCCC4)sc3c2)CC1	inactive: -7.12%
CC(C)Oc1ccc(C(=O)N(Cc2ccco2)Cc2cccs2)cc1	inactive: -1.32%
CCn1cc2nc(SCC(=O)Nc3ccccc3C(F)(F)F)n(Cc3ccc(C)cc3)c(=O)c2n1	inactive: 6.24%
CC1Cc2ccccc2N1S(=O)(=O)c1nnc(NC(=O)c2cccc(F)c2)s1 (stereo not given)	inactive: 9.84%
Cn1nc(C(=O)NCc2ccccc2Cl)c2c1-c1ccccc1S(=O)(=O)C2	inactive: -8.2%
Cc1cccc(N(CC(=O)NCCSCc2cccc(Cl)c2)S(=O)(=O)c2ccccc2)c1C	inactive: -4.72%
COc1ccc(C(C)=O)cc1CSc1nc(NCCc2ccccc2)c2ccccc2n1	inactive: 1.08%

Three compounds out of the list, arranged by formula weight, falling.
Structure (SMILES)	activity change, negative = inhibition
CCOc1ccccc1C(=O)N1CCc2cc(OC)c(OC)cc2C1COc1ccc(OC)cc1 (stereo not given)	inactive: -15.4%
COc1ccc(C(C)=O)cc1CSc1nc(NCCc2ccccc2)c2ccccc2n1	inactive: 1.08%
COc1cccc(C(=O)Nc2nc3nc(C)c(Cc4ccccc4)c(=O)n3[nH]2)c1	inactive: 12.2%

Going on with the list:

Structure (SMILES)	activity change, negative = inhibition
COc1ccc(-c2nn(-c3ccccc3)cc2C2NC(=O)NC(C)=C2C(=O)OC(C)C)cc1Cl (stereo not given)	inactive: -13.1%
Cc1ccc(C(=O)c2cn(Cc3ccccc3)c3ccccc3c2=O)cc1	inactive: 0.0583%
CCc1cccc(C)c1Nc1c(-c2ccc(N(C)C)cc2)nc2cnccn12	inactive: -12.5%
Cc1ccc(NC(=O)c2ccc(N(Cc3ccccc3)S(C)(=O)=O)cc2)cc1	inactive: -0.462%
CCc1ccc(S(=O)(=O)c2nnn3c2nc(N2CCC(C(N)=O)CC2)c2cc(Cl)ccc23)cc1	inactive: 0.422%
COC(=O)c1ccc(NC(=O)NC(C)c2c(-n3cccc3)sc(C)c2C)cc1 (stereo not given)	inactive: 3.35%
Cc1cccc(N(CC(=O)N(C)Cc2ccccc2)S(=O)(=O)c2ccccc2)c1C	inactive: -11.2%
Cc1ccc(CNC(=O)c2c[nH]n3c(=O)c(Cc4ccc(F)cc4Cl)c(C)nc23)cc1	inactive: 1.98%
CCn1c(=O)c2cc(C(=O)NCCCN(C)Cc3ccccc3)sc2c2ccccc21	inactive: -13.6%
CC(C)(C)C1CCc2c(sc(NC(=O)CCC(=O)O)c2C(=O)Nc2ccccc2C(F)(F)F)C1 (stereo not given)	inactive: 0.973%
FC(F)(F)c1cccc(N2CCN(Cc3nnc(-c4ccc5c(c4)OCO5)o3)CC2)c1	inactive: -14.3%
Cc1ccc(Cl)cc1N1CCN(C(=O)c2cccn2-c2nnc(N3CCCC3)s2)CC1	inactive: -3.8%
CCOC(=O)c1c(Nc2cc(C)cc(C)c2)nnc(-c2ccccc2)c1-c1ccccc1	inactive: 7.93%
COc1ccccc1C(=O)Nc1nc2nc(C)c(Cc3ccccc3)c(=O)n2[nH]1	inactive: 8.06%
CCOc1ccccc1C(=O)N(Cc1cccs1)c1ccc(Cl)cc1	inactive: -9.7%
Cc1ccc(C)c(CN2C(=O)c3ccccc3S(=O)c3ccc(C(=O)N4CCC(C)CC4)cc32)c1 (stereo not given)	inactive: -6.56%
O=C(c1cc2ccc3cccnc3c2[nH]1)N1CCN(c2cccc(C(F)(F)F)c2)CC1	inactive: 2.17%
COc1ccccc1C(=O)Nc1nc2nc(-c3ccccc3)cc(=O)n2[nH]1	inactive: -2.77%
COc1cc(NC(=O)CC(c2ccc(C)cc2)N2Cc3ccccc3C2=O)cc(OC)c1 (stereo not given)	inactive: -2.44%
Cc1cccc(CNC(=O)c2oc3c(c2C)-c2nn(Cc4cccc(Cl)c4)cc2CC3)c1	inactive: -4.44%
